These are yes or no findings as the source states them, for the method shown. Binding can be weak; no strength is given. Tags and fused reporters may be left off the sequences shown.
Target: T1, TOPLESS amino-terminal region (AA 1-188; TPL-N), bait fused to the GAL4 DBD (A. thaliana) (UniProt Q94AI7)
T1 sequence: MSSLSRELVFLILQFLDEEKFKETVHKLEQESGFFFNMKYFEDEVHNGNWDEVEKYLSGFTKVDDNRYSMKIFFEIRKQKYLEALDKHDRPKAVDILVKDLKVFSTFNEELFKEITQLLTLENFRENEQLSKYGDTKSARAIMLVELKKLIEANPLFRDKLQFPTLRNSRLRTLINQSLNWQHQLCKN
Test: two-hybrid

Row | Substance | binding
1 | homeodomain TF AT2G40260, prey of the A. thaliana Y2H cDNA library | binds
2 | putative TF AT3G54390, prey of the binary Y2H fused to the GAL4 AD (A. thaliana) | binds
3 | homeodomain TF AT2G40260, prey of the binary Y2H fused to the GAL4 AD (A. thaliana) | binds
4 | RING/U-box protein AT3G05670, prey of the binary Y2H fused to the GAL4 AD (from UniProt Q9M9X2) | binds

More lines, now with the values ahead:

Row | binding | Substance
5 | binds | putative TF AT3G54390, prey of the A. thaliana Y2H cDNA library
6 | binds | RING/U-box protein AT3G05670, prey of the A. thaliana Y2H cDNA library
